Results on four substances are retold here after article PMC8456781, “Myosin-X and talin modulate integrin activity at filopodia tips” (Cell Reports, 2021).

Protein sequences, listed by entry. Tags and fused reporters are not part of them. Lines headed by an entry give the natural chain unless they say otherwise; changes in a name come on top. Chains listed by the source or under a name are the forms on record and can include a tag or linker.
UniProt Q9HD67: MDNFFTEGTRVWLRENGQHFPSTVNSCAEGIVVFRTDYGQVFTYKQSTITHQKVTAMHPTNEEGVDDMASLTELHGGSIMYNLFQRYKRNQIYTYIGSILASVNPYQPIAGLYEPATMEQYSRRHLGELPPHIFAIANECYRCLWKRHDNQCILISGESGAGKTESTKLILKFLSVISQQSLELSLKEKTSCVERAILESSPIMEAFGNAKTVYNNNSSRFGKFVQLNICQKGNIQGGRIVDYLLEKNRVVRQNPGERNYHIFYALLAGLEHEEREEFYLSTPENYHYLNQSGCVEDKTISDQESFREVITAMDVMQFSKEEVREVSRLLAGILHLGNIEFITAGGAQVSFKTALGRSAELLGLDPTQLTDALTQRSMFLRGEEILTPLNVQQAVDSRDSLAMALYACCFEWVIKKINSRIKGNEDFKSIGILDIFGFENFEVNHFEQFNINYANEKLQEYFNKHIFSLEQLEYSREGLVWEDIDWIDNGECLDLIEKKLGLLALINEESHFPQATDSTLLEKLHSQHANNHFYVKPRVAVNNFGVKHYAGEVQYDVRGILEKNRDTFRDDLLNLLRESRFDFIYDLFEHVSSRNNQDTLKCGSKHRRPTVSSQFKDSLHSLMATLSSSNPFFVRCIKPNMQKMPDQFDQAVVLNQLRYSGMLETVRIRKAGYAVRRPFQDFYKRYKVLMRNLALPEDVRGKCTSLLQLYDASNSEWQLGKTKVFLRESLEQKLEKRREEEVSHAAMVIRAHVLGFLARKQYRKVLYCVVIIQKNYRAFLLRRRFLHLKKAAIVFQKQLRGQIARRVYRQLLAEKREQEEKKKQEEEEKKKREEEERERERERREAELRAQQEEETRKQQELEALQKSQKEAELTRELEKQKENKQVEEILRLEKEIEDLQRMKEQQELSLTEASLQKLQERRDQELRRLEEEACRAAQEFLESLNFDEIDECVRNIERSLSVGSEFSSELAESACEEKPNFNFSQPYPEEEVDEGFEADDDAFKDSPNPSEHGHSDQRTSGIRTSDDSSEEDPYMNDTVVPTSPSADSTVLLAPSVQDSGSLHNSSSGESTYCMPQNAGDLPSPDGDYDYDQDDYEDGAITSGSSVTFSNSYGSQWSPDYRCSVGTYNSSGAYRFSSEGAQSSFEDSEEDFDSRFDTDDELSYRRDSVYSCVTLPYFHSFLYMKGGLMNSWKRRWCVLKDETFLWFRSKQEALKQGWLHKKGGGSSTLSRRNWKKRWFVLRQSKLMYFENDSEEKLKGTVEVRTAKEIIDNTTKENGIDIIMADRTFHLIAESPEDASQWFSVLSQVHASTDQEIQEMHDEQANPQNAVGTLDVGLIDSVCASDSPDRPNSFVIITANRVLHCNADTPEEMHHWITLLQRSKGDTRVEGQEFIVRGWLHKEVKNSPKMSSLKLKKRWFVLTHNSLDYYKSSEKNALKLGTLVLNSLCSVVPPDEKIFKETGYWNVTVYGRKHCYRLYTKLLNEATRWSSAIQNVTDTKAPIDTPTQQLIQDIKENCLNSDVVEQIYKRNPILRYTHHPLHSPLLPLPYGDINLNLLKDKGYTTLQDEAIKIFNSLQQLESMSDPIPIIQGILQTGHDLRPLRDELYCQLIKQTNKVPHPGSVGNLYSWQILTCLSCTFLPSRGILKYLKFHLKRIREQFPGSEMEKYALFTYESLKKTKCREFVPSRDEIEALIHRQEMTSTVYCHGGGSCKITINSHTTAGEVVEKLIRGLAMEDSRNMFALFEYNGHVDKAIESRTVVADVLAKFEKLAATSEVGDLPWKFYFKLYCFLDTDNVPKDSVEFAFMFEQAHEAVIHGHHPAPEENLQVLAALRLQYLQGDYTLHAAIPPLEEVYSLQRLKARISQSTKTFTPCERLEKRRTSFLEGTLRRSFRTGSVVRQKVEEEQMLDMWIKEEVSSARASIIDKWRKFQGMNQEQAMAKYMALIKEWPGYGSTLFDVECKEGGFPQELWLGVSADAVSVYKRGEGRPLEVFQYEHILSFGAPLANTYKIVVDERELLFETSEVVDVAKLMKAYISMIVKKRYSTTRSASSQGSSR
EGFP-MYO10-FERM^ITGBD (MYO10-FERM mutated on the predicted integrin binding site) (Q9HD67, form named): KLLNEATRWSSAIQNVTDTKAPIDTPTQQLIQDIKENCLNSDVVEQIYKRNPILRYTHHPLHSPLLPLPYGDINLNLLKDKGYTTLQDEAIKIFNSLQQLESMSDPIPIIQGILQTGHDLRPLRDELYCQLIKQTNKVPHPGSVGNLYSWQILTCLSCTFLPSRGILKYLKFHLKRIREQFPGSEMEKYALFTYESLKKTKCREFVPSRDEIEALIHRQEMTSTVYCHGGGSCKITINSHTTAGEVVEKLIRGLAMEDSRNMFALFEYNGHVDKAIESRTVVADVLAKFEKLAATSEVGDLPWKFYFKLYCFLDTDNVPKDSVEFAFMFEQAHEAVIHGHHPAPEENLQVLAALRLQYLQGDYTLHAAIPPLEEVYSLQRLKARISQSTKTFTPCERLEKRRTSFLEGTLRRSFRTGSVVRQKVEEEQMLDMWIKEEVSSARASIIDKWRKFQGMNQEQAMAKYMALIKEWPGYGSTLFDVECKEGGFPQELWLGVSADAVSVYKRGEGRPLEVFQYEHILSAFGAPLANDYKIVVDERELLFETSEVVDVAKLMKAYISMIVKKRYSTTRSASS
UniProt Q96CW1: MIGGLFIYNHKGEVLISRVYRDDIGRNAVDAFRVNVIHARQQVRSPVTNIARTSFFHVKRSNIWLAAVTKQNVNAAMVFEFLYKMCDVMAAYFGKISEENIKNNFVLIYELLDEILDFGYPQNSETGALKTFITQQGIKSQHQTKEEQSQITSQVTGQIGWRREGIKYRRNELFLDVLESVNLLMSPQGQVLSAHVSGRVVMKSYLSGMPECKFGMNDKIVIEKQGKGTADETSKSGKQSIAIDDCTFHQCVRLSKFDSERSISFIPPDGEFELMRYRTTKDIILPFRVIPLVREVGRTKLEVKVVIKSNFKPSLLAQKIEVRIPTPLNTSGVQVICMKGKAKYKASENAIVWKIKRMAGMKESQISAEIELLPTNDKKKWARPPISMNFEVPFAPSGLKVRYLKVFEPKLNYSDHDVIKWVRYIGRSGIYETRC

For assay [1], the target named is T1, conserved region of the α2-integrin tail, peptide.
T1 sequence (peptide, biotin (biotinylated for the pull-downs; position not stated)): WKLGFFKRKYEKM
Description: pull-down; biotinylated integrin tail peptides on streptavidin Dynabeads, U2-OS cell lysate (40 mM HEPES, 75 mM NaCl, 2 mM EDTA, 1% NP-40), 2 h at 4°C, western blot; only the target purified.

The target of assay [2] is wild-type β1-integrin tail peptide. Described as above.

No constants are given. Whether binding was seen depends on the method and setting. Binding seen in cells or lysates may run through a third protein. Some entries that bind do so weakly or less than the wild type.

“EGFP-MYO10-FERM^ITGBD (MYO10-FERM mutated on the predicted integrin binding site) (from UniProt Q9HD67 1480-2053) (domain or fragment)”: in assay [1], the binding result was “binds”. Still for that read-out and setting: for “EGFP-tagged MYO10-FERM domain wild-type (EGFP-MYO10^FERM) (from UniProt Q9HD67 1480-2053) (domain or fragment)” the value was “binds”. As to “clathrin adaptor AP2μ (from UniProt Q96CW1 1-435)”, the figures for the binding result in assay [2] and in assay [1] were “no binding” and “binds”, respectively.

For “myosin-X (MYO10), endogenous full-length (from UniProt Q9HD67 1-2058)”, the binding entry in assay [1] is listed as “binds”.
